Measurements from PubChem BioAssay AID588497 (NMMLSC, 2011).
About 780 (0.22%) of roughly 360,000 compounds were called active. This list was built around the results that the source calls inconclusive (neither active nor inactive); the mix of calls is not that of the screen. No stated cut-off is given here; in the data, active means inhibition above about 35% (passing the limit was not always enough); inconclusive means no clear call, values can overlap the other calls.

Each molecule was assayed on Botulinum neurotoxin type F light chain protease (Clostridium botulinum) (assay: BoNT/F light chain protease inhibitors, primary screen, biochemical, flow cytometry, MLPCN library (AID 588497; further: plate controls were buffer without enzyme for full effect and enzyme alone for no effect)). Conditions: Multiplex microsphere protease cleavage assay, at 10 µM, active compounds read high.

SMILES	inhibition
CCN(CC)c1nc(Nc2ccc([N+](=O)[O-])cc2)nc(N(CC)CC)n1	inconclusive: -0.5%
NC(=O)c1nnsc1-c1ccc(-c2snnc2C(N)=O)cc1	inconclusive: -30.1%
N#Cc1cnn2c(-c3cccc(C(F)(F)F)c3)ccnc12	inconclusive: -46.4%
C=CCNCCCCOc1ccc(Br)cc1C	inactive: -3.7%
CCCCn1c(N)c(N(CCC(C)C)C(=O)CCCc2nc3ccccc3s2)c(=O)[nH]c1=O	inactive: -2.1%
COCC(=O)Nc1ccc(S(=O)(=O)NCC2CCCO2)cc1 (configuration not stated)	inconclusive: -6.6%
COc1ccccc1CN1CCCC(CN(CCN(C)C)C(=O)C2CCCC2)C1 (configuration not stated)	inconclusive: -9.2%
Cc1ccc(NC(=O)CN(C)C(=O)CSc2nnc(NC(C)C)s2)cc1	inconclusive: -11%
COc1ccc2[nH]c(C(=O)NCc3ccccc3)cc2c1	inactive: 4.8%
CC(C)n1cnc2cc(NCc3ccccc3O)ccc21	inactive: 7.4%
CCOc1c(C)cc(S(=O)(=O)NCc2cccnc2)c(C)c1C	inconclusive: -33.7%
CCOc1ccccc1NC(=O)C1CCCN(C(=O)NCc2ccccc2)C1 (configuration not stated)	inconclusive: -14.6%
O=C(Nc1ccc2ccccc2c1)c1ccccc1F	inconclusive: -16.5%
N#Cc1ccc(C(=O)Nc2ccc(N3CCN(C(=O)c4ccco4)CC3)cc2)c(F)c1	inactive: -7.4%
Cn1cc(C(=O)Nc2ccc(Cl)c(Cl)c2)cn1	inactive: -8.1%
O=C1CN(C(=O)c2ccccc2Cl)c2ccccc2N1	active: 44.1%
Cc1ccc(C(=O)C[n+]2ccccc2C)cc1[N+](=O)[O-]	inconclusive: -44.8%
O=C(COC(=O)C1CCN(S(=O)(=O)c2c(Cl)cccc2Cl)CC1)NCc1ccco1	inactive: 9.4%
COc1cccc(C(=O)N2CCN(Cc3ccccc3Br)CC2)c1	inconclusive: 21%
COc1ccc(S(=O)(=O)NCCOc2ccccc2)cc1-n1cnnn1	inactive: 0.7%
CCOC(=O)C1CCCN(CCC(=O)Nc2cc(OC)ccc2OC)C1 (configuration not stated)	inconclusive: -34.2%
C=CCSc1nsc(NC(=O)Nc2cccc(C(C)=O)c2)n1	inconclusive: 11.9%
COc1ccc(NC(=S)N2CCN(c3ccc4c(c3)C3CCN(C(=O)OCc5ccccc5)C4C3)CC2)c(OC)c1 (configuration not stated)	inactive: -9%

4 consecutive records from above, for reference:
SMILES	inhibition
O=C(COC(=O)C1CCN(S(=O)(=O)c2c(Cl)cccc2Cl)CC1)NCc1ccco1	inactive: 9.4%
COc1cccc(C(=O)N2CCN(Cc3ccccc3Br)CC2)c1	inconclusive: 21%
COc1ccc(S(=O)(=O)NCCOc2ccccc2)cc1-n1cnnn1	inactive: 0.7%
CCOC(=O)C1CCCN(CCC(=O)Nc2cc(OC)ccc2OC)C1 (configuration not stated)	inconclusive: -34.2%

Continuation:

SMILES	inhibition
Cc1ccc(N2C(=O)C3C4CCC(O4)C3C2=O)c(OC(F)F)c1 (configuration not stated)	inconclusive: -8.4%
CN(CCc1ccccn1)Cc1ccc(Cl)c(Cl)c1	inconclusive: 13.1%
COCCN1C(=O)N(c2cccc(OC)c2)C(=O)C1CC(=O)Nc1cccc(F)c1 (configuration not stated)	inconclusive: -11.6%
Cc1ccc(OCC(=O)NN2C(=O)c3ccccc3C2=O)c(C)c1	inactive: 2.4%
Cc1ccccc1OCC(=O)Nc1ccncc1	inconclusive: 10.7%
CCOC(=O)C1CCN(CCC(=O)Nc2cc(C)ccc2C)CC1	inconclusive: 49.4%
CCOc1ccc(C2C3=C(CC(C)(C)CC3=O)N(CC(=O)O)C3=C2C(=O)CC(C)(C)C3)cc1OCC	inconclusive: -22%
O=S(=O)(c1ccc(Cl)cc1)N1CCC(n2cccc2)CC1	inconclusive: -1.2%
COc1cccc(-c2ccc(-c3noc(-c4cccs4)n3)c(OC)n2)c1	inactive: 5%
O=C1NC(=O)/C(=C/c2ccc(OS(=O)(=O)c3ccc(F)cc3F)cc2)N1	inconclusive: -60.3%
CCN1CCN(S(=O)(=O)c2ccc(Cl)c(C(=O)NC(C)c3ccccc3Cl)c2)CC1 (configuration not stated)	inconclusive: 0.7%
Cc1ccc(OCCn2ccnc2)c(C)c1	inconclusive: -5.9%
CCOc1cccc(=O)c2c(C)n(Cc3ccccc3)c(C)c12	inactive: -0.1%
COCC(=O)Nc1ccc(S(=O)(=O)Nc2nccs2)cc1	inconclusive: 9%
CC(=O)n1cc(N(C(=O)CCl)c2ccc(Cl)cc2)c2ccccc21	inconclusive: -21.4%
Cc1cc(C)nc(NC(=O)CN2C(=O)c3ccccc3C2=O)n1	inconclusive: -3.6%
Cc1cccc(C(=O)Oc2ccccc2C(=O)N2CCOCC2)c1	inconclusive: 4%
Cc1ccc(CN2CCC(C)(Oc3cccc(Cl)c3)C2)cc1 (configuration not stated)	inactive: -9.1%
CCCn1nnc(NC(=O)/C=C/c2ccc(C(C)C)cc2)n1	inconclusive: -37.4%
Cn1c(=O)oc2cc(S(=O)(=O)Nc3ccc(Cl)cc3)ccc21	inconclusive: 4.4%
CCC(C)N1C(=S)SC(C)(C)C1N(O)C(=O)NC1CCCCC1 (configuration not stated)	inconclusive: -5.2%
O=[N+]([O-])c1cccc(OCCN2CCC(Cc3ccccc3)CC2)c1	inconclusive: -18.8%
N#Cc1c(-c2ccccc2)cc2nc3ccccc3n2c1N	inactive: -0.9%

SMILES	inhibition
COC(=O)Cn1cc(/C=C2\C(=O)NC(=O)N(c3ccccc3)C2=O)c2ccccc21	inconclusive: 29.2%
CCOc1ccccc1NC(=O)CCC(=O)Nc1nnc(C2CCCCC2)s1	inactive: -2%
Cc1cc(C)c2cc(C#N)c(SCC(=O)NCc3ccco3)nc2c1	inconclusive: -6.6%
O=C(O)CCC(=O)Nc1ccc(SSc2ccc(NC(=O)CCC(=O)O)cc2)cc1	inconclusive: -8.8%
O=C1C=C(CCc2ccccc2)CCC1	inactive: -5%
O=C(CN1C(=O)N/C(=C\c2ccccc2OCc2ccc(C(=O)O)cc2)C1=O)Nc1ccccc1F	inactive: -3.3%
CCN(CC)S(=O)(=O)c1ccc2c(c1)nc(SCn1nnc3ccccc3c1=O)n2CC	inactive: -1.3%
Nn1c(SCc2c(F)cccc2F)nnc1-c1ccccn1	inconclusive: 51.2%
COc1ccc(C2C(C(C)=O)=C(O)C(=O)N2c2ccc(O)cc2)cc1 (configuration not stated)	inconclusive: -11.9%
O=C(Nc1ccc2c(c1)OCO2)c1cn(Cc2ccc(F)cc2)nn1	inconclusive: -16.1%
COc1cc(OC)cc(C(=O)Nc2ccc3c(c2)n(C)c(=O)n3C)c1	inconclusive: -44.7%
CCN(CCCNC(=O)c1cc2c(-c3cccc(OC)c3)nn(C)c2s1)Cc1ccccc1	inactive: -13.1%
CC(C)Oc1nc(-c2ccc(Cl)cc2)nc2ccccc12	inconclusive: 0.8%
CCCCCCCSc1nnc(N)s1	inconclusive: -92.4%
COc1cccc(CNc2nc3cc(-c4ccc(OC)cc4C)sc3c(=O)n2C)c1	inactive: -1.5%
O=c1ccc(/C=C/c2ccccc2)nn1Cc1ccccc1	inconclusive: -13.1%
Clc1ccccc1C1CC(c2ccccc2)=Nc2ccccc2N1 (configuration not stated)	inconclusive: -42.6%
COc1ccc(-c2nc(C#N)c(NCCc3ccccc3)o2)cc1OC	inactive: -7.5%
CCOC(=O)/C(C#N)=C1/C=CN(c2ccccc2)C=N1	inactive: -17.4%
CCCOc1ccc(C2CC(=O)Nc3cc(OC)c(OC)cc32)cc1 (configuration not stated)	inconclusive: 26.5%
CN=c1nc(-c2ccccc2)n(-c2ccccc2)s1	active: 48.2%
CC(=O)Nc1ccc(S(=O)(=O)NCCC(=O)OCC(=O)c2ccccc2)cc1	inconclusive: 21.7%
COc1ccccc1N1CCN(S(=O)(=O)CCNC(=O)c2cccc(F)c2)CC1	inconclusive: -2.3%

SMILES	inhibition
Cn1ccnc1-c1ccc(-c2nccn2C)cc1	inconclusive: 1.5%
CCOc1ccccc1NC(=O)N1CCC(c2nc3ccccc3[nH]2)CC1	inactive: 4.6%
COc1ccc2c(c1)CCc1cnc(N)nc1-2	inactive: -6.8%
COC(=O)c1csc(S(=O)(=O)N2CCCCC2)c1OC	inconclusive: -90.9%
COC(=O)N/N=C/c1cn(Cc2ccccc2F)c2ccccc12	inconclusive: -66.3%
COc1ccc(CN2CCN(Cc3ccc(CO)o3)CC2CCO)cc1C (configuration not stated)	inconclusive: 5.6%
O=S(=O)(c1cccc(Br)c1)N1CCN(C(=S)NCC2CCCO2)CC1 (configuration not stated)	inconclusive: 10.2%
COc1ccc(CNC(=O)c2ccc(Cl)c(S(=O)(=O)N3CCCCCC3)c2)cc1	inactive: -8.8%
Cc1c(C(=O)Nc2ccccc2)c2cc(O)ccc2n1Cc1ccccc1	inconclusive: 5.9%
Cc1ccc(C(=O)NCC(=O)Nc2ccc(S(=O)(=O)Nc3cc(C)nc(C)n3)cc2)cc1	inactive: -2.5%
CCN(CC)CCCNC(=O)c1cc2c(-c3cccc(OC)c3)nn(C)c2s1	inconclusive: -17.7%
Clc1cccc(-c2csc(Nc3cccnc3)n2)c1	inconclusive: -143%
CCOc1ccc(N/C=C/C(=O)c2ccccc2)cc1	inconclusive: 9.4%
CN1CCN(c2nc(Nc3ccccc3)nc(N)c2[N+](=O)[O-])CC1	inconclusive: -56.2%
Cc1ccc(S(=O)(=O)N2CCOCC2)cc1C(=O)OCC(=O)Nc1ccc2c(c1)OCO2	inconclusive: -7.1%
CC1c2[nH]c3ccccc3c2CCN1S(C)(=O)=O (configuration not stated)	inconclusive: -20.3%
COC(=O)c1sc(C(F)(F)F)c(-c2ccccc2)c1S(=O)(=O)N1CCOCC1	inconclusive: 9.7%
COc1ccc(C2=NN(C(=O)CN3CCCC3)C(c3ccc(OC)cc3)C2)cc1 (configuration not stated)	active: 56.8%
CC1NC(=O)NC1CCCCC(=O)O (configuration not stated)	inconclusive: -27.6%
O=C(COc1ccc2c3c(c(=O)oc2c1)CCCC3)NC(Cc1ccc(Cl)cc1)C(=O)O (configuration not stated)	inactive: 0.6%
CC(C)(C)[C@H]1C=C(C(=O)N2CCOCC2)O[C@@H](OCc2ccc(CO)cc2)C1	inactive: 8.6%
COc1cccc(/C=N/NC(=O)c2ccc3nc[nH]c3c2)c1	inconclusive: -22.1%
COc1cccc(/C=N/Nc2nc(-c3cccnc3)nc3ccccc23)c1	inconclusive: -19.6%
